From the supplement of paper PMC12067093, “Discovery and optimisation of a covalent ligand for TRIM25 and its application to targeted protein ubiquitination” (Chemical Science, 2025)
The other results are listed elsewhere or left out.

Protein sequences, listed by entry. Tags and fused reporters are not part of them. Lines headed by an entry give the natural chain unless they say otherwise; changes in a name come on top.
UniProt P26639: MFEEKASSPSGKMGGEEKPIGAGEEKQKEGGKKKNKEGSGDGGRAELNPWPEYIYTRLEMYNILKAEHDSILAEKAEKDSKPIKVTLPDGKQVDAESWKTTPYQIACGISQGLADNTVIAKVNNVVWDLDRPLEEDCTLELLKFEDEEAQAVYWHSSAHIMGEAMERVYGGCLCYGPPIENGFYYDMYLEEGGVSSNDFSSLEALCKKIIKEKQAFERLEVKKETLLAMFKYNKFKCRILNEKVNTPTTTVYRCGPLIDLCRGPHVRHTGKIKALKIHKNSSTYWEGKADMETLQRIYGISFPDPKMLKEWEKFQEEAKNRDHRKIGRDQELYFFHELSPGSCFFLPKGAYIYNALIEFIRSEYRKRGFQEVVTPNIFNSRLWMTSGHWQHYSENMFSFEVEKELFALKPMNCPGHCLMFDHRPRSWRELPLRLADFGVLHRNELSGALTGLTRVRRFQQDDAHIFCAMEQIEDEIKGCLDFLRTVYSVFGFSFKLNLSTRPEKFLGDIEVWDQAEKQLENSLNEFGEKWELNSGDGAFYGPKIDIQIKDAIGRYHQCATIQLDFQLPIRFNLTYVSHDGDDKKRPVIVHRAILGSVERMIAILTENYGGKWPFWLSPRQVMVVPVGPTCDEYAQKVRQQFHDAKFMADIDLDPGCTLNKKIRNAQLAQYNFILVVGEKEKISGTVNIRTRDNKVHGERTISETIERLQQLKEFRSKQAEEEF
UniProt Q8TC07: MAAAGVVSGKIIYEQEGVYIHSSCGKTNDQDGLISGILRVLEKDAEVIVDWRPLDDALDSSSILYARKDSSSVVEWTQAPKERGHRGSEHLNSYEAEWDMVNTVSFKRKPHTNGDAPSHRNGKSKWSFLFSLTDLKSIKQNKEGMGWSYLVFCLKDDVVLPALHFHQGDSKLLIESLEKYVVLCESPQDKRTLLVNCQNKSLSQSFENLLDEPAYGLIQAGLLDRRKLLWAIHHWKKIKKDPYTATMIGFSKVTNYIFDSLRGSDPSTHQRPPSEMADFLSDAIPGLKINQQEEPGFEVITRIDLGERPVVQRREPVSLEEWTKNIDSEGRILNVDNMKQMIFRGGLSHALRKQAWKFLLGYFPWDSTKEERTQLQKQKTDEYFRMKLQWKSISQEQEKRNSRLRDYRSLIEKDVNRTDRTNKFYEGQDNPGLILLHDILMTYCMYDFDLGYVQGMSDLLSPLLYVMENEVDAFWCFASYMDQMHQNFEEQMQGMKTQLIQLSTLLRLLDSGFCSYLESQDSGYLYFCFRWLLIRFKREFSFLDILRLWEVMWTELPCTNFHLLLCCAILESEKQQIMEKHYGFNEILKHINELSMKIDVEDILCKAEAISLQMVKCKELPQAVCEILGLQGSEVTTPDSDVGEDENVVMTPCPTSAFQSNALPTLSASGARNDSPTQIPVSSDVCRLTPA
UniProt Q6P1X5, whole entry, looked up: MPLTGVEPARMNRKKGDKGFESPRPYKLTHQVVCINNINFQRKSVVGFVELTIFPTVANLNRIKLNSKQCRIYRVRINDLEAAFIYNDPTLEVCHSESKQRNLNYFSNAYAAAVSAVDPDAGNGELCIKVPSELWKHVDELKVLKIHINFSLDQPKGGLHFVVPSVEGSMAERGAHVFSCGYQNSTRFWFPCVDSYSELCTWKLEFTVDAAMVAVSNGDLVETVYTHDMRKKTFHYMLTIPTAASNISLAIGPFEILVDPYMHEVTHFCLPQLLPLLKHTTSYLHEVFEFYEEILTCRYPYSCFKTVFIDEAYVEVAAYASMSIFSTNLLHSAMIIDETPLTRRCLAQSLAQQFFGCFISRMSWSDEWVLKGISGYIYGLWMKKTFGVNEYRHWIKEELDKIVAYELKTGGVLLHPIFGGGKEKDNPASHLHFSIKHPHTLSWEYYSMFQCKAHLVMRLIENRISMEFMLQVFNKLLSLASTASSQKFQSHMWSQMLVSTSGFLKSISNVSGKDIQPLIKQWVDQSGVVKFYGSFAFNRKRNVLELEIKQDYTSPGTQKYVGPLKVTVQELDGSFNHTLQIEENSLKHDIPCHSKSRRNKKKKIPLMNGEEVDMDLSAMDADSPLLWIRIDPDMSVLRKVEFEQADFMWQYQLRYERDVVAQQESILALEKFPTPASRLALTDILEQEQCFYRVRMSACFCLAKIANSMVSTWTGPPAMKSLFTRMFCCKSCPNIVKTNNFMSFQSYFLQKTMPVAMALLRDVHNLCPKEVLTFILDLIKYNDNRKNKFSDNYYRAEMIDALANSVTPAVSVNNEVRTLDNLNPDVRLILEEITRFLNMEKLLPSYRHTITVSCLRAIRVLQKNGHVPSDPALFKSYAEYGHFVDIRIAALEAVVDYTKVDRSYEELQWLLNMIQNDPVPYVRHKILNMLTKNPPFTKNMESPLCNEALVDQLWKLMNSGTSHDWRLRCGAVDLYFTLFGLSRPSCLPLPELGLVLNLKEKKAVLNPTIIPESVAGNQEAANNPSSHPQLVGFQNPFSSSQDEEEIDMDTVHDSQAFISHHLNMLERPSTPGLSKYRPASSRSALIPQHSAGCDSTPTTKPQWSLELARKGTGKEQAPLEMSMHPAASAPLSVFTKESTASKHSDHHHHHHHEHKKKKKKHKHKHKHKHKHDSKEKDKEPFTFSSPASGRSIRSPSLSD
UniProt Q15544, whole entry: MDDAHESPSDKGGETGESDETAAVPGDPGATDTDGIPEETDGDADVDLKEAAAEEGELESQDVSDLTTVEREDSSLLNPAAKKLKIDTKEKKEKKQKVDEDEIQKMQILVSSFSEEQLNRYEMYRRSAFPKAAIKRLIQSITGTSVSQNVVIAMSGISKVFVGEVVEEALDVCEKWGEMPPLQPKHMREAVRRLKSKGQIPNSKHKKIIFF
UniProt Q86TI0: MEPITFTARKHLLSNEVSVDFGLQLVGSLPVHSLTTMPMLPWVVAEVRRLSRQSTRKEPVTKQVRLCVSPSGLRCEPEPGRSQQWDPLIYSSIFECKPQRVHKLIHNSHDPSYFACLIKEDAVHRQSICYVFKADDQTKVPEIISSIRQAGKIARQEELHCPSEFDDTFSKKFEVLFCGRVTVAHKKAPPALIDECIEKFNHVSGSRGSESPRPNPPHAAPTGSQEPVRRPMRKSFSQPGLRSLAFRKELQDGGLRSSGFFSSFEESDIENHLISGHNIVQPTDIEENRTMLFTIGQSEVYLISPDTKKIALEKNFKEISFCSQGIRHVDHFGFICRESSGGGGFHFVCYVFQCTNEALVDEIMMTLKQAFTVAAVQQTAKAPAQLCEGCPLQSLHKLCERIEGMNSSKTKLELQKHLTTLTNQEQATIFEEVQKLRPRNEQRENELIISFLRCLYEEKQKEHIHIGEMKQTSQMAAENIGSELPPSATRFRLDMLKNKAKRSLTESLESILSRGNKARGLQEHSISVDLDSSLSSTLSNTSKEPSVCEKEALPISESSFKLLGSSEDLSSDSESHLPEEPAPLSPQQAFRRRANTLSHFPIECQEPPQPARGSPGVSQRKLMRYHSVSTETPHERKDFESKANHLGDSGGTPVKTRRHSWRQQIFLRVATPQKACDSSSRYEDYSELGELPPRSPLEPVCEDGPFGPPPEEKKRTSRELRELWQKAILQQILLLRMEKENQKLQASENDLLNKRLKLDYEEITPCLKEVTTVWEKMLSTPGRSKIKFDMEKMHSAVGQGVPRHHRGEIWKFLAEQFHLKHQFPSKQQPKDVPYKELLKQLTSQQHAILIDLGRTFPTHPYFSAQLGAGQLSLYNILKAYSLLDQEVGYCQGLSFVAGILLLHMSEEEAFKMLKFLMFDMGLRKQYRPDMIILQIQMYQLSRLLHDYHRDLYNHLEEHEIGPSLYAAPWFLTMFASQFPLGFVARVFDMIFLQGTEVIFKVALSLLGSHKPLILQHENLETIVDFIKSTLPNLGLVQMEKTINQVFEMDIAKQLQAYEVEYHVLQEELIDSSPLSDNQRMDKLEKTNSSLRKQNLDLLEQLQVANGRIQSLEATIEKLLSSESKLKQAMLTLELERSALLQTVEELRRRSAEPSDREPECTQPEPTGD
UniProt Q86TM6, whole entry, looked up: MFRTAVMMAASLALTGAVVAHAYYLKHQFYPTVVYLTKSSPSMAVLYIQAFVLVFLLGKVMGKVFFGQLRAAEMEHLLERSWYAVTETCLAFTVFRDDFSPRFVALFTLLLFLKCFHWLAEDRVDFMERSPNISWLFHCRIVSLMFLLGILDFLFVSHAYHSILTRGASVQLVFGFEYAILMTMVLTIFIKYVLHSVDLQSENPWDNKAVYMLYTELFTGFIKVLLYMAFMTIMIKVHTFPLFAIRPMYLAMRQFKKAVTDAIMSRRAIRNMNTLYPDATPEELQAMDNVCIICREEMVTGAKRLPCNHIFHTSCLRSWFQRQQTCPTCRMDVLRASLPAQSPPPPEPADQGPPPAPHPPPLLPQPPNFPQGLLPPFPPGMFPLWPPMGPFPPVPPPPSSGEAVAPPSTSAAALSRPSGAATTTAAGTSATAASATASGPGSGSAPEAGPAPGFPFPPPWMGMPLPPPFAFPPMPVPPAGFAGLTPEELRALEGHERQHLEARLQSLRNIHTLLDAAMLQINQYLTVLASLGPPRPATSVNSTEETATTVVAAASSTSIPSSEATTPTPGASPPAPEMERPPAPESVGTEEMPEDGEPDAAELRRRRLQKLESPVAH
UniProt Q9UL54: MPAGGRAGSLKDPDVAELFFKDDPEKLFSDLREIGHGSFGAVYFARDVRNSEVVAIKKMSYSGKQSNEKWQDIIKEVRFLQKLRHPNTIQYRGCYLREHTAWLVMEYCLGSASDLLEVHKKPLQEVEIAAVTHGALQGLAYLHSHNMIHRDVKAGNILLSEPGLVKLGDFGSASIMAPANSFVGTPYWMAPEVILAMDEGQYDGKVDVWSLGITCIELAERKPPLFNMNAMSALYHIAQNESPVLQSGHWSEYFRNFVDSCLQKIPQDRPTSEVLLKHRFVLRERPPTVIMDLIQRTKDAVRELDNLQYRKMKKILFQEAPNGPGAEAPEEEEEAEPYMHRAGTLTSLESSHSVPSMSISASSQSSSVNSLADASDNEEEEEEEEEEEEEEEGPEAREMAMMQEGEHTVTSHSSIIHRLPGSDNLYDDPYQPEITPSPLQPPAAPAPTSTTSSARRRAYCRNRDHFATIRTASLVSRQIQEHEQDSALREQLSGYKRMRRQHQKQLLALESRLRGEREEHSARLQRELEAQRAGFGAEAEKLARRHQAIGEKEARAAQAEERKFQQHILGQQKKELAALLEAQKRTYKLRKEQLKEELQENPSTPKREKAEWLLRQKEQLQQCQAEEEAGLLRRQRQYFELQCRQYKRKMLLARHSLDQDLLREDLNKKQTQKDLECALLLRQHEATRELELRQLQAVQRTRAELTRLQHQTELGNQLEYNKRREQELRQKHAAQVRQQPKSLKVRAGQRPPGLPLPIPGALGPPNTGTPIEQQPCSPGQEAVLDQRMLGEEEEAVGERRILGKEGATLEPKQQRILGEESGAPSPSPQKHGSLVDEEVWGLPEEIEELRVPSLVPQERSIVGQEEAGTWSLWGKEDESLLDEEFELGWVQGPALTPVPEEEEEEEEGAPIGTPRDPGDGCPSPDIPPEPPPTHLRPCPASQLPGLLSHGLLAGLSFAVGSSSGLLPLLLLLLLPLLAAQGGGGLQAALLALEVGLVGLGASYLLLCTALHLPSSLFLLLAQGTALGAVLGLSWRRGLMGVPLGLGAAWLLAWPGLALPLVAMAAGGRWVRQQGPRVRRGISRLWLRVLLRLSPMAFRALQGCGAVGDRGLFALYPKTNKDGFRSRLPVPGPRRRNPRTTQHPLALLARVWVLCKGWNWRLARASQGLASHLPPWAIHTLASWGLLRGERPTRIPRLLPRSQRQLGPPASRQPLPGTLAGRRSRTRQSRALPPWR
UniProt Q9UHD2: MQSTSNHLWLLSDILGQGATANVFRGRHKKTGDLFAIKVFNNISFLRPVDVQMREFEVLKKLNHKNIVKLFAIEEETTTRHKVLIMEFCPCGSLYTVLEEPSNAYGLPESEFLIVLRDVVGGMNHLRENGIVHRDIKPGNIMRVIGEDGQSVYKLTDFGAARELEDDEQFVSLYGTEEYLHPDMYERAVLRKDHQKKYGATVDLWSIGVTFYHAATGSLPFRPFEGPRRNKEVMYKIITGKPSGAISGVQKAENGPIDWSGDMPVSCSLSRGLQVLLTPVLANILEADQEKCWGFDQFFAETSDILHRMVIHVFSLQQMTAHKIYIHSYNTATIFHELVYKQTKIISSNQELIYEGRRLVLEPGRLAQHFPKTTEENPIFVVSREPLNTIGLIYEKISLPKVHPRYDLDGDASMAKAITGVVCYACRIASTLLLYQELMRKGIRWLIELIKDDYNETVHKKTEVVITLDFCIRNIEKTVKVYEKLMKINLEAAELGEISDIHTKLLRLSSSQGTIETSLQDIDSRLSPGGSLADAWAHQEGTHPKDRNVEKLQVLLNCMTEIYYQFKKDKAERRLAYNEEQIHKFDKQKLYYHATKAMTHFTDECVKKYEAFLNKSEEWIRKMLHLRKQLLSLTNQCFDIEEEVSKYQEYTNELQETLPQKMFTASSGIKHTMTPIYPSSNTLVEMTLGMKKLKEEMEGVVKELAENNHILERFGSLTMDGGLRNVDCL

Each target was assayed with CC1Cc2ccccc2N1C(=O)C1CCCN(C1)C(=O)CCl (mixture of isomers) [TRIM25 ligand 11 (diastereomer mixture)] (assay: probe-labelled cysteine peptide fold change vs DMSO (competition) (log2 fold change); higher = less target engagement (more negative = stronger competition)). Conditions: 10 µM; THP-1; incubation time: 4 h.
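Also: competitive chemoproteomic profiling in live THP-1 cells with an iodoacetamide desthiobiotin (IA-DTB) probe, comparing probe-labelled peptide intensities in compound-treated cells against DMSO-treated controls.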

| Target | probe-labelled cysteine peptide fold change |
| --- | --- |
| TBC1D13_Q9NVG8_145_ATDYPCLLILDPQNEFETLRK (UniProt Q9NVG8) | -0.167 |
| TARS_P26639_343_DQELYFFHELSPGSCFFLPK (UniProt P26639) | -0.0332 |
| TBC1D22B_Q9NU19_144_NSSDTCLR (UniProt Q9NU19) | -0.129 |
| TANGO6_Q9C0B7_15_QAVGSGAQETCGLDR (UniProt Q9C0B7) | -0.0466 |
| TBC1D15_Q8TC07_184_YVVLCESPQDK (UniProt Q8TC07) | 0.12 |
| TBL1XR1_Q9BZK7_434_GICIHTLTK (UniProt Q9BZK7) | -0.0452 |
| SYNJ2_O15056_19_LGAEGDCSVLLEAR (UniProt O15056) | 0.0723 |
| TBL2_Q9Y4P3_240_GQVLSTINTNQMNNTHAAVSPCGR (UniProt Q9Y4P3) | 0.0972 |
| TARBP1_Q13395_24_ALLGALCQGEASAER (UniProt Q13395) | -0.00389 |
| SYNCRIP_O60506_211_GYAFVTFCTK (UniProt O60506) | -0.111 |
| TBC1D13_Q9NVG8_261_EHAEADTFFCFTNLMAEIRDNFIK (UniProt Q9NVG8) | -0.0165 |
| TARS_P26639_254_CGPLIDLCR (UniProt P26639) | 0.0498 |
| TBC1D22A_Q8WUA7_151_SVSESHTSCPAESASDAAPLQR (UniProt Q8WUA7) | -0.0514 |
| TARSL2_A2RTX5_422_EQELFFFHDLSPGSCFFLPR (UniProt A2RTX5) | -0.141 |
| TAF6_P49848_235_EITEACVGSCEAK (UniProt P49848) | -0.0162 |
| TBPL1_P62380_24_CHLNLR (UniProt P62380) | -0.0383 |
| TAF4_O00268_1022_KVDCPGPGSGAEGSGPGSVVPGSSGVGTPR (UniProt O00268) | -0.155 |
| TAF2_Q6P1X5_94_INDLEAAFIYNDPTLEVCHSESK (UniProt Q6P1X5) | 0.0196 |
| TCEA1_P23193_291_SADEPMTTFVVCNECGNR (UniProt P23193) | 0.236 |
| TBL1XR1_Q9BZK7_465_CVHIWNTQTGALVHSYR (UniProt Q9BZK7) | 0.104 |

| Target | probe-labelled cysteine peptide fold change |
| --- | --- |
| SZT2_Q5T011_1460_TVPSNPHYFFYCPPSSR (UniProt Q5T011) | 0.0892 |
| TAP2_Q03519_571_NNIAYGLQSCEDDK (UniProt Q03519) | 0.0776 |
| TCEA1_P23193_271_NCTYTQVQTR (UniProt P23193) | -0.162 |
| TANK_Q92844_177_LNIPDTATETQCSVPIQCTDK (UniProt Q92844) | -0.141 |
| TAOK1_Q7L7X3_730_QFQDTCK (UniProt Q7L7X3) | 0.0139 |
| TBC1D4_O60343_402_HVDHFGFICR (UniProt O60343) | -0.0405 |
| TAF11_Q15544_173_VFVGEVVEEALDVCEK (UniProt Q15544) | 0.0419 |
| TCAF1_Q9Y4C2_576_IQIGCHTDDLTR (UniProt Q9Y4C2) | 0.0608 |
| TAPT1_Q6NXT6_562_DLLEIDRFTICGNR (UniProt Q6NXT6) | -0.000619 |
| TBCD_Q9BTW9_1055_TLDHVLTHGCFDIFTTEEDHPFAVK (UniProt Q9BTW9) | -0.0281 |
| TBC1D1_Q86TI0_390_APAQLCEGCPLQSLHK (UniProt Q86TI0) | 0.253 |
| TAP1_Q03518_722_KPCVLILDDATSALDANSQLQVEQLLYESPER (UniProt Q03518) | -0.0352 |
| SYVN1_Q86TM6_307_RLPCNHIFHTSCLR (UniProt Q86TM6) | 0.151 |
| TAOK2_Q9UL54_1103_ALQGCGAVGDR (UniProt Q9UL54) | 0.0711 |
| SYVN1_Q86TM6_326+329_QQTCPTCR (UniProt Q86TM6) | 0.113 |
| TBK1_Q9UHD2_605_AMTHFTDECVK (UniProt Q9UHD2) | 0.0838 |
| TARBP1_Q13395_592_VNESYFKPSPTCSSIGLHK (UniProt Q13395) | 0.0579 |
| TAF2_Q6P1X5_690_LALTDILEQEQCFYR (UniProt Q6P1X5) | -0.0292 |
| TATDN1_Q6P1N9_226_LMIETDAPWCGVK (UniProt Q6P1N9) | -0.0502 |

Same assay, conditions: 50 µM; THP-1; incubation time: 4 h

| Target | probe-labelled cysteine peptide fold change |
| --- | --- |
| TBC1D13_Q9NVG8_145_ATDYPCLLILDPQNEFETLRK (UniProt Q9NVG8) | -0.109 |
| TARS_P26639_343_DQELYFFHELSPGSCFFLPK (UniProt P26639) | 0.00388 |
| TBC1D22B_Q9NU19_144_NSSDTCLR (UniProt Q9NU19) | -0.171 |
| TANGO6_Q9C0B7_15_QAVGSGAQETCGLDR (UniProt Q9C0B7) | -0.0698 |
| TBC1D15_Q8TC07_184_YVVLCESPQDK (UniProt Q8TC07) | 0.215 |
| TBL1XR1_Q9BZK7_434_GICIHTLTK (UniProt Q9BZK7) | 0.0102 |
| SYNJ2_O15056_19_LGAEGDCSVLLEAR (UniProt O15056) | 0.274 |
| TBL2_Q9Y4P3_240_GQVLSTINTNQMNNTHAAVSPCGR (UniProt Q9Y4P3) | -0.0426 |
| TARBP1_Q13395_24_ALLGALCQGEASAER (UniProt Q13395) | -0.12 |
| SYNCRIP_O60506_211_GYAFVTFCTK (UniProt O60506) | 0.00391 |
| TBC1D13_Q9NVG8_261_EHAEADTFFCFTNLMAEIRDNFIK (UniProt Q9NVG8) | -0.0773 |
| TARS_P26639_254_CGPLIDLCR (UniProt P26639) | 0.049 |
| TBC1D22A_Q8WUA7_151_SVSESHTSCPAESASDAAPLQR (UniProt Q8WUA7) | -0.228 |
| TARSL2_A2RTX5_422_EQELFFFHDLSPGSCFFLPR (UniProt A2RTX5) | -0.229 |
| TAF6_P49848_235_EITEACVGSCEAK (UniProt P49848) | -0.263 |
| TBPL1_P62380_24_CHLNLR (UniProt P62380) | 0.0657 |
| TAF4_O00268_1022_KVDCPGPGSGAEGSGPGSVVPGSSGVGTPR (UniProt O00268) | -0.148 |
| TAF2_Q6P1X5_94_INDLEAAFIYNDPTLEVCHSESK (UniProt Q6P1X5) | -0.111 |
| TCEA1_P23193_291_SADEPMTTFVVCNECGNR (UniProt P23193) | 0.0324 |
| TBL1XR1_Q9BZK7_465_CVHIWNTQTGALVHSYR (UniProt Q9BZK7) | -0.0415 |

| Target | probe-labelled cysteine peptide fold change |
| --- | --- |
| SZT2_Q5T011_1460_TVPSNPHYFFYCPPSSR (UniProt Q5T011) | 0.0106 |
| TAP2_Q03519_571_NNIAYGLQSCEDDK (UniProt Q03519) | 0.0769 |
| TCEA1_P23193_271_NCTYTQVQTR (UniProt P23193) | -0.0772 |
| TANK_Q92844_177_LNIPDTATETQCSVPIQCTDK (UniProt Q92844) | -0.16 |
| TAOK1_Q7L7X3_730_QFQDTCK (UniProt Q7L7X3) | 0.00821 |
| TBC1D4_O60343_402_HVDHFGFICR (UniProt O60343) | 0.0174 |
| TAF11_Q15544_173_VFVGEVVEEALDVCEK (UniProt Q15544) | 0.284 |
| TCAF1_Q9Y4C2_576_IQIGCHTDDLTR (UniProt Q9Y4C2) | 0.143 |
| TAPT1_Q6NXT6_562_DLLEIDRFTICGNR (UniProt Q6NXT6) | -0.0974 |
| TBCD_Q9BTW9_1055_TLDHVLTHGCFDIFTTEEDHPFAVK (UniProt Q9BTW9) | -0.0769 |
| TBC1D1_Q86TI0_390_APAQLCEGCPLQSLHK (UniProt Q86TI0) | 0.00724 |
| TAP1_Q03518_722_KPCVLILDDATSALDANSQLQVEQLLYESPER (UniProt Q03518) | 0.0123 |
| SYVN1_Q86TM6_307_RLPCNHIFHTSCLR (UniProt Q86TM6) | -0.269 |
| TAOK2_Q9UL54_1103_ALQGCGAVGDR (UniProt Q9UL54) | 0.0811 |
| SYVN1_Q86TM6_326+329_QQTCPTCR (UniProt Q86TM6) | 0.0121 |
| TBK1_Q9UHD2_605_AMTHFTDECVK (UniProt Q9UHD2) | 0.345 |
| TARBP1_Q13395_592_VNESYFKPSPTCSSIGLHK (UniProt Q13395) | -0.264 |
| TAF2_Q6P1X5_690_LALTDILEQEQCFYR (UniProt Q6P1X5) | -0.115 |
| TATDN1_Q6P1N9_226_LMIETDAPWCGVK (UniProt Q6P1N9) | -0.086 |
